Laboratory results published in patent publication US20250313576A1, “COMPOUND FOR PHOTOO[…] AND MEDICINAL COMPOSITION CONTAINING SAME” (The University of Tokyo, priority 2021, published 2025).
Some results were stated once for a whole list of compounds, not compound by compound. At least one structure is not confirmed: it was looked up by name or label, or the drawing left a doubt.

Assay: UV-vis spectrum, verification of absorption wavelength
Type: physicochemical
Conditions: acetonitrile solvent, FIG. 1
From the text: It can be said that the longer the wavelength of light used for a living body, the lower the cytotoxicity and the better the tissue permeability.

| SMILES | absorber on the long wavelength side where cytotoxicity can be ignored [nm] |
| --- | --- |
| Brc1cnc2nc(/C=C/C=C/c3cc4c5c(c3)CCCN5CCC4)sc2n1 [Compound J, 6-Bromo-2-((1E,3E)-4-(2,3,6,7-tetrahydro-1H,5H-pyrido[3,2,1-ij]quinolin-9-yl)butadien-1,3-dien-1-yl)thiazolo[4,5-b]pyrazine] | ≥ 595 |
| COc1cc(N(C)C)cc(OC)c1/C=C/C=C/c1nc2ncc(Br)nc2s1 [Compound OMe, 4-((1E,3E)-4-(6-Bromothiazolo[4,5-b]pyrazin-2-yl)butadien-1,3-dien-1-yl)-3,5-dimethoxy-N,N-dimethylaniline] | ≥ 595 |
